# Results reported in the supplement of paper PMC8728848.
# The list shows a part of the results.
# Tests used:
# Experiment in all cases: glycan array binding signal (z-score within array); higher = stronger binding
# Conditions in all cases: glycan notation: IUPAC condensed, linker removed
# [1] = target: Neu5Ac(a2-6)Gal(b1-4)GlcNAc(b1-2)Man(a1-3)[Man(a1-6)]Man(b1-4)GlcNAc(b1-4)GlcNAc
# How it was run: (§1)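 Glycan array data came from 3228 arrays in the Consortium for Functional Glycomics database, and only arrays with an available protein sequence were kept. Glycan names were put into IUPAC-condensed notation, and columns mapping to the same glycan were averaged. The binding signal is a within-array Z-score, averaged across arrays of one protein sequence run at different concentrations or buffers and across linkers. A negative Z-score can be read as non-binding.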
# [2] = target: Neu5Ac(a2-6)Gal(b1-4)GlcNAc(b1-2)Man(a1-3)[Neu5Ac(a2-3)Gal(b1-4)GlcNAc(b1-2)Man(a1-6)]Man(b1-4)GlcNAc(b1-4)GlcNAc
# How it was run: as §1
# [3] = target: Neu5Ac(a2-6)Gal(b1-4)GlcNAc(b1-2)Man(a1-3)[Neu5Ac(a2-6)Gal(b1-4)GlcNAc(b1-2)Man(a1-6)]Man(b1-4)GlcNAc(b1-4)GlcNAc
# How it was run: as §1
# [4] = target: Neu5Ac(a2-6)Gal(b1-4)GlcNAc(b1-2)Man(a1-3)[Neu5Ac(a2-6)Gal(b1-4)GlcNAc(b1-2)Man(a1-6)]Man(b1-4)GlcNAc(b1-4)[Fuc(a1-6)]GlcNAc
# How it was run: as §1
# [5] = target: Neu5Ac(a2-6)Gal(b1-4)GlcNAc(b1-2)Man(a1-6)Man(b1-4)GlcNAc(b1-4)GlcNAc
# How it was run: as §1
# [6] = target: Neu5Ac(a2-6)Gal(b1-4)GlcNAc(b1-2)Man(a1-6)[Gal(b1-4)GlcNAc(b1-2)Man(a1-3)]Man(b1-4)GlcNAc(b1-4)GlcNAc
# How it was run: as §1
# [7] = target: Neu5Ac(a2-6)Gal(b1-4)GlcNAc(b1-2)Man(a1-6)[GlcNAc(b1-2)Man(a1-3)]Man(b1-4)GlcNAc(b1-4)GlcNAc
# How it was run: as §1
# [8] = target: Neu5Ac(a2-6)Gal(b1-4)GlcNAc(b1-2)Man(a1-6)[Man(a1-3)]Man(b1-4)GlcNAc(b1-4)GlcNAc
# How it was run: as §1
# [9] = target: Neu5Ac(a2-6)Gal(b1-4)GlcNAc(b1-2)[Neu5Ac(a2-6)Gal(b1-4)GlcNAc(b1-4)]Man(a1-3)[GlcNAc(b1-4)][Neu5Ac(a2-6)Gal(b1-4)GlcNAc(b1-2)[Neu5Ac(a2-6)Gal(b1-4)GlcNAc(b1-6)]Man(a1-6)]Man(b1-4)GlcNAc(b1-4)GlcNAc
# How it was run: as §1
# [10] = target: Neu5Ac(a2-6)Gal(b1-4)GlcNAc(b1-2)[Neu5Ac(a2-6)Gal(b1-4)GlcNAc(b1-4)]Man(a1-3)[GlcNAc(b1-4)][Neu5Ac(a2-6)Gal(b1-4)GlcNAc(b1-4)Man(a1-6)]Man(b1-4)GlcNAc(b1-4)GlcNAc
# How it was run: as §1
# [11] = target: Neu5Ac(a2-6)Gal(b1-4)GlcNAc(b1-2)[Neu5Ac(a2-6)Gal(b1-4)GlcNAc(b1-6)]Man(a1-6)[Neu5Ac(a2-6)Gal(b1-4)GlcNAc(b1-2)Man(a1-3)][GlcNAc(b1-4)]Man(b1-4)GlcNAc(b1-4)GlcNAc
# How it was run: as §1
# [12] = target: Neu5Ac(a2-6)Gal(b1-4)GlcNAc(b1-3)Gal(b1-3)GlcNAc
# How it was run: as §1
# [13] = target: Neu5Ac(a2-6)Gal(b1-4)GlcNAc(b1-3)Gal(b1-4)GlcNAc
# How it was run: as §1
# [14] = target: Neu5Ac(a2-6)Gal(b1-4)GlcNAc(b1-3)Gal(b1-4)GlcNAc(b1-2)Man(a1-3)[Neu5Ac(a2-6)Gal(b1-4)GlcNAc(b1-3)Gal(b1-4)GlcNAc(b1-2)Man(a1-6)]GalNAc
# How it was run: as §1
# [15] = target: Neu5Ac(a2-6)Gal(b1-4)GlcNAc(b1-3)Gal(b1-4)GlcNAc(b1-3)Gal(b1-4)GlcNAc
# How it was run: as §1
# [16] = target: Neu5Ac(a2-6)Gal(b1-4)GlcNAc(b1-3)Gal(b1-4)GlcNAc(b1-3)Gal(b1-4)GlcNAc(b1-2)Man(a1-3)[Neu5Ac(a2-6)Gal(b1-4)GlcNAc(b1-3)Gal(b1-4)GlcNAc(b1-3)Gal(b1-4)GlcNAc(b1-2)Man(a1-6)]GalNAc
# How it was run: as §1
# [17] = target: Neu5Ac(a2-6)Gal(b1-4)GlcNAc(b1-3)Gal(b1-4)GlcNAc(b1-3)GalNAc
# How it was run: as §1
# [18] = target: Neu5Ac(a2-6)Gal(b1-4)GlcNAc(b1-3)Gal(b1-4)GlcNAc(b1-3)[Neu5Ac(a2-6)Gal(b1-4)GlcNAc(b1-3)Gal(b1-4)GlcNAc(b1-6)]GalNAc
# How it was run: as §1
# [19] = target: Neu5Ac(a2-6)Gal(b1-4)GlcNAc(b1-3)Gal(b1-4)GlcNAc(b1-6)[Gal(b1-3)]GalNAc
# How it was run: as §1
# [20] = target: Neu5Ac(a2-6)Gal(b1-4)GlcNAc(b1-3)Gal(b1-4)[Fuc(a1-3)]GlcNAc(b1-3)Gal(b1-4)[Fuc(a1-3)]GlcNAc
# How it was run: as §1
# [21] = target: Neu5Ac(a2-6)Gal(b1-4)GlcNAc(b1-3)GalNAc
# How it was run: as §1
# [22] = target: Neu5Ac(a2-6)Gal(b1-4)GlcNAc(b1-3)[Neu5Ac(a2-6)Gal(b1-4)GlcNAc(b1-6)]GalNAc
# How it was run: as §1
# [23] = target: Neu5Ac(a2-6)Gal(b1-4)GlcNAc(b1-6)GalNAc
# How it was run: as §1
# [24] = target: Neu5Ac(a2-6)Gal(b1-4)GlcNAc(b1-6)[Gal(b1-3)GlcNAc(b1-3)]Gal(b1-4)Glc
# How it was run: as §1
# [25] = target: Neu5Ac(a2-6)Gal(b1-4)GlcNAc(b1-6)[Gal(b1-3)]GalNAc
# How it was run: as §1
# [26] = target: Neu5Ac(a2-6)Gal(b1-4)GlcNAc6S
# How it was run: as §1
# [27] = target: Neu5Ac(a2-6)GalNAc
# How it was run: as §1
# [28] = target: Neu5Ac(a2-6)GalNAc(b1-4)GlcNAc
# How it was run: as §1
# [29] = target: Neu5Ac(a2-6)GalNAc(b1-4)GlcNAc6S
# How it was run: as §1
# [30] = target: Neu5Ac(a2-6)GlcNAc(b1-4)GlcNAc
# How it was run: as §1
# [31] = target: Neu5Ac(a2-6)GlcNAc(b1-4)GlcNAc(b1-4)GlcNAc
# How it was run: as §1
binder,measurement,setting,value
EULS2 M3 (Oryza sativa) (protein) MVYCRANPNYAMTARNGAVVLAPANPKDEYQHWIKDMRWSTSIKDEEGYPAFALVNKATGQAIKHSLGQSHPVRLVPYNPEVMDESVLWTESRDVGNGFRCIRMVNNIYLNFDAFHGDKYHGGVRDGTDIVLWKLCEGDSLRWKIQPYYILEQKLISEEDLNSAVDHHHHHH,glycan array binding signal (z-score),[1],1.2
same,glycan array binding signal (z-score),[2],-0.391
same,glycan array binding signal (z-score),[3],-0.369
same,glycan array binding signal (z-score),[4],-0.007
same,glycan array binding signal (z-score),[5],-0.553
same,glycan array binding signal (z-score),[6],-0.636
same,glycan array binding signal (z-score),[7],-0.231
same,glycan array binding signal (z-score),[8],0.023
same,glycan array binding signal (z-score),[9],1.37
same,glycan array binding signal (z-score),[10],-0.673
same,glycan array binding signal (z-score),[11],0.124
same,glycan array binding signal (z-score),[12],-0.218
same,glycan array binding signal (z-score),[13],-0.96
same,glycan array binding signal (z-score),[14],0.359
same,glycan array binding signal (z-score),[15],-0.967
same,glycan array binding signal (z-score),[16],0.572
same,glycan array binding signal (z-score),[17],-0.002
same,glycan array binding signal (z-score),[18],0.406
same,glycan array binding signal (z-score),[19],-0.547
same,glycan array binding signal (z-score),[20],-0.324
same,glycan array binding signal (z-score),[21],-0.09
same,glycan array binding signal (z-score),[22],-0.424
same,glycan array binding signal (z-score),[23],0.157
same,glycan array binding signal (z-score),[24],-0.268
same,glycan array binding signal (z-score),[25],0.023
same,glycan array binding signal (z-score),[26],-0.561
same,glycan array binding signal (z-score),[27],-0.8
same,glycan array binding signal (z-score),[28],-0.731
same,glycan array binding signal (z-score),[29],0.59
same,glycan array binding signal (z-score),[30],0.433
same,glycan array binding signal (z-score),[31],0.106

# 2 entries from above, with tabs:
binder	measurement	setting	value
EULS2 M3 (Oryza sativa) (protein) MVYCRANPNYAMTARNGAVVLAPANPKDEYQHWIKDMRWSTSIKDEEGYPAFALVNKATGQAIKHSLGQSHPVRLVPYNPEVMDESVLWTESRDVGNGFRCIRMVNNIYLNFDAFHGDKYHGGVRDGTDIVLWKLCEGDSLRWKIQPYYILEQKLISEEDLNSAVDHHHHHH	glycan array binding signal (z-score)	[29]	0.59
same	glycan array binding signal (z-score)	[30]	0.433
